Structures can show the parent of a compound that is named as a salt. Some of the results follow. Single values are uncertain, as repeats are few or missing.

This experiment deals with SK-N-BE(2). Kind of experiment: inhibition of N-Myc immunofluorescence signal per cell relative to control (fraction); higher = stronger N-Myc protein reduction. The conditions noted are these: 1 µM; 9 h.
As to `O=C1C(=Cc2cccnc2)C(=O)c2ccccc21`, the “inhibition of N-Myc immunofluorescence signal per cell” value (“inhibition … per cell” below) was determined as 0.129.
Regarding `Nc1c(S(=O)(=O)c2ccccc2)c2nc3ccccc3nc2n1-c1ccc(F)cc1`, the “inhibition … per cell” value came to 0.129.
Under `CC(C(=O)Nc1cccc(/N=C/c2c(O)ccc3ccccc23)c1)c1ccccc1` (stereo not given) [Salermide] stands -0.0596; under `CC(C)C(C(=O)O)N1C(=O)C(=Cc2ccc(Br)cc2)SC1=S` (stereo not given), 0.00947.
Next, `CC(C)c1c(-c2ccccc2)nc2c(C#N)c[nH]n2c1=O`: 0.0294; `CS(=O)(=O)c1ccc(NC(=O)c2cc(C#N)c(Sc3c(Cl)cncc3Cl)s2)cc1` [USP7/USP47 inhibitor]: 0.123.
Next, `CCOC(=O)c1ccc(-c2ncc(C(=O)OCC)s2)nc1` [Diethyl-pythiDC]: -0.0252.
For `Nc1ccccc1NC(=O)c1ccc(CNc2nccc(-c3cccnc3)n2)cc1` [Mocetinostat], the “inhibition … per cell” value was 0.0174.
Under `O=C1CCC(N2C(=O)c3ccc(F)cc3C2=O)C(=O)N1` (stereo not given) [Thalidomide 5-fluoride] stands 0.166.
`O=C(c1ccc(Cl)cc1Cl)n1nnc2ccccc21`: the “inhibition … per cell” value was -0.0622.
Under `O=C(/C=C/c1ccccc1)c1ccc(O)cc1` [4'-Hydroxychalcone] stands -0.0224.
Next, `c1ccc(CNc2nc(N3CCOc4ccccc43)nc3c2CCCC3)cc1` [ML241 (hydrochloride)]: -0.0582; `COc1cccc2c1c(O)c(C(=O)N(C)c1ccc(C(F)(F)F)cc1)c(=O)n2C` [Tasquinimod]: 0.2; `Nc1ccccc1NC(=O)CCCCCC(=O)Nc1ccccc1`: -0.144.
Under `CC(C)C[C@H](NC(=O)CNC(=O)c1cc(Cl)ccc1Cl)B1OC(=O)C(CC(=O)O)(CC(=O)O)O1` [Ixazomib citrate] stands -0.0211.
Consider `COc1cc(C(=O)Nc2ccccc2-c2cn3c(CN4CCNCC4)csc3n2)cc(OC)c1OC`, for which the “inhibition … per cell” value was -0.00817.
Under `CCNCCN(CC)c1nc(Nc2ccc3ncoc3c2)nc(N[C@@H](C)C2CCCCC2)n1` stands 0.284; under `NCc1cccc(CNc2ncnc3c(N4CCN(Cc5ccccc5)CC4)ncnc23)c1`, 0.17; under `O=C(CCCCCCNC(=O)c1cnc(N(c2ccccc2)c2ccccc2Cl)nc1)NO` [Citarinostat], -0.00287.
Turning to `COC(=O)CNC(=O)C(=O)OC`, the “inhibition … per cell” value is -0.0134.
Next, `O=C(O)CCCCCCCCOc1cccc2c1C(=O)N(C1CCC(=O)NC1=O)C2=O` (stereo not given) [Thalidomide-O-C8-COOH]: -0.0851.
Next, `COC(=O)[C@H](CCSC)NC(=O)c1ccc(CNCc2cnc[nH]2)cc1-c1ccccc1C`: 0.0563; `O=C(NC1CC1)C(=O)C(Cc1ccccc1)NC(=O)[C@H]1CCC(=O)N1Cc1ccccc1` (stereo not given in full) [Alicapistat]: 0.0934.
As for `CCOc1cc(C(C)(C)C)ccc1C1=N[C@@](C)(c2ccc(Cl)cc2)[C@@](C)(c2ccc(Cl)cc2)N1C(=O)N1CCN(CCCS(C)(=O)=O)CC1`, the “inhibition … per cell” value turned out to be 0.228.
Under `COc1ccc(CN(C(=O)Cc2cccs2)c2cc(OC)c(OC)c(OC)c2)cc1` stands 0.346; under `O=C(NO)c1cccc(C(=O)NCCc2ccccc2)c1`, -0.0486; under `Cc1cc(C)c(CN2CCc3c(Cl)cc(-c4c(C)noc4C)c(Cl)c3C2=O)c(=O)[nH]1`, -0.0154.
Next, `CCCCCCCCCCCCCCCc1cccc(O)c1C(=O)O` [Anacardic Acid]: -0.133; `O=c1c(O)c(-c2ccc(O)c(O)c2)oc2cc(O)ccc12` [Fisetin]: 0.0467; `N[C@H]1C[C@@H]1c1ccc(-c2cccc(O)c2)cc1`: -0.0241.
In the case of `O=C(CCCCCCNC(=O)c1cnc(N(c2ccccc2)c2ccccc2)nc1)NO` [Ricolinostat], the “inhibition … per cell” value is -0.0601.
As to `CC(C)(C)OC(=O)CCCCCCCCOc1cccc2c1C(=O)N(C1CCC(=O)NC1=O)C2=O` (stereo not given) [Thalidomide-O-C8-Boc], the “inhibition … per cell” value is 0.0773.
Next, `CC(C)(C)OC(=O)c1ccc(-n2[nH]cc(-n3ccnn3)c2=O)nc1`: -0.11; `COc1ccc(-c2nc(N3CCOCC3)c3sc(CN(C)c4ncc(C(=O)NO)cn4)cc3n2)cn1` [Fimepinostat]: 0.244.
Under `CCCCNNC(=O)c1ccc(Br)cc1` stands -0.157.
